# Assay results: PubChem BioAssay AID1671190 (National Center for Advancing Translational Sciences (NCATS), 2021)
# Amino acid sequences for entries named in this document (tags omitted). A change or cut given only in a name is not applied to a line headed by its entry.
# UniProt P18054: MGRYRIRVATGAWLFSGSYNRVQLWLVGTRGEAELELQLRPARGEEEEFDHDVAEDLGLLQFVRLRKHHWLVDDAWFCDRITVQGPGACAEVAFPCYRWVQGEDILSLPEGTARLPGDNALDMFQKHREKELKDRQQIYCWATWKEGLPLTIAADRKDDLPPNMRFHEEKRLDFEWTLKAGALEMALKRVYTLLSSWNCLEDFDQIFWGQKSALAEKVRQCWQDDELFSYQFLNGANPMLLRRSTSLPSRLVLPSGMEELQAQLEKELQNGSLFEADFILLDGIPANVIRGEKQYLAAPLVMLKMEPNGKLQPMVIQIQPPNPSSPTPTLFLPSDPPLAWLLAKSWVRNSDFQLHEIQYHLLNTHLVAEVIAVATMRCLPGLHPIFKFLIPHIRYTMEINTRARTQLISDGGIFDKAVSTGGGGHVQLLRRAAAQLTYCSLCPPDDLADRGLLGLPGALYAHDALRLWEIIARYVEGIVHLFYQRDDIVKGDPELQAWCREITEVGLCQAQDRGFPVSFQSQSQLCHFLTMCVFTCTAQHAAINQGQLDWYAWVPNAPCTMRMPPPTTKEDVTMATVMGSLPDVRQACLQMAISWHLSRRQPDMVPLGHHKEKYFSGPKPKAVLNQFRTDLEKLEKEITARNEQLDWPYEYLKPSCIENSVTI
# The whole screen tested about 580,000 compounds, of which about 6,100 (1.1%) were called active. Inconclusive means that the source gave no clear call. Such entries were picked first, then a sample of the others. Calls come from the whole dose curve; as a rule, active = well fitted inhibition curve with a large enough effect; inconclusive = small, poorly fitted or top-dose-only effect, or another doubt; inactive = no such curve, though single readings can be large or run the other way. Potencies of inconclusive entries are doubtful fits and often do not repeat.
# Target: Polyunsaturated fatty acid lipoxygenase ALOX12 (Homo sapiens) (UniProt P18054)
# Test: Primary qHTS assay for inhibitors of human arachidonate 12S-lipoxygenase (ALOX12): Round 2
# Conditions: purified 12hLO, xylenol orange hydroperoxide absorbance; activity change, negative = inhibition: at 108 µM (top of the series) unless noted
# Method in brief: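 Purified human 12hLO at 150 nM in 25 mM Hepes, 0.01% Triton X-100, pH 7.0, preincubated 15 min at room temperature with compound. Reaction started with 40 uM arachidonic acid, 30 min at room temperature. Hydroperoxide measured by Fe-xylenol orange, 573/405 nm absorbance ratio.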
# % is set by controls: 0 for no effect and ±100 for the full control effect; potency is the fitted concentration of half-maximal effect.
Compound,Potency,"activity change, negative = inhibition"
S=C(N/N=C1\CCc2ccccc21)NC1CCCCC1,active: 44.7 µM,
CCCCc1cn([C@@H](CCCCNC(=O)OC(C)(C)C)C(=O)N2CCN(C(=O)OC(C)(C)C)CC2)nn1,"inconclusive: 17.8 µM [inhibitor, full curve, poor fit]",
CCOC(=O)[C@]12CCCC=C1N(Cc1ccc3c(c1)OCO3)C(=O)[C@H](CC(=O)NCc1ccc(C)o1)C2,"inconclusive: 25.1 µM [inhibitor, partial curve, poor fit]",
O=C(NCc1ccc(N2CCCC2)nc1)c1cc(Cl)ccc1O,,inactive: 5.6%
CC1Oc2ccccc2N(CC(=O)N2CCCC2)C1=O (configuration not stated),"inconclusive: 89.1 µM [inhibitor, single point]",
COCCNC(=O)[C@H]1C[C@H](Oc2ccccc2)CN1C(=O)Nc1ccccc1,,inactive: 27.5%
O=C(NNc1cccc(Cl)c1)c1cccnc1Oc1ccccc1,"inconclusive: 35.5 µM [inhibitor, single point]",
Cc1ccc2nc(N(CCCN(C)C)C(=O)CCc3ccccc3)sc2c1,"inconclusive: 56.2 µM [inhibitor, partial curve, poor fit]",
O=C(NN=C1C2CC3CC(C2)CC1C3)c1ccncc1,"inconclusive: 3.16 µM [inhibitor, full curve, poor fit]",
Cc1ccc(NS(=O)(=O)c2ccc3c(c2)CCN3C(=O)CCC(=O)O)cc1Cl,"inconclusive: 31.6 µM [inhibitor, single point]",
Cc1ccc(NC(=O)c2ccc(COc3ccc4c(c3)CCC4)cc2)c(C)c1,,inactive: -6.1%
COc1cccc(-c2cc(C(F)(F)F)nc(-n3cc(Cl)cn3)n2)c1,"inconclusive: 14.1 µM [inhibitor, partial curve, poor fit]",
COCCCn1cc(CN2CC(N3CCN(CCN(C)C)CC3)CS2(=O)=O)nn1 (configuration not stated),"inconclusive: 2.51 µM [inhibitor, full curve]",
O=C1CCC2(CCCN(C(=O)c3ccc(=O)[nH]c3)C2)CN1CCc1cnc[nH]1 (configuration not stated),"inconclusive: 14.1 µM [inhibitor, partial curve]",
CCN(Cc1ccccc1)c1ccc(NS(=O)(=O)c2ccc(C3CCCCC3)cc2)cc1C(=O)O,"inconclusive: 50.1 µM [inhibitor, partial curve, poor fit]",
CC(=O)Nc1cccc(-c2nc3cc(Cl)cc(Cl)c3o2)c1,"inconclusive: 112 µM [inhibitor, single point]",
O=C(CSc1nnc(-c2ccncc2)n1C1CC1)Nc1ccccc1C(=O)NC1CC1,"inconclusive: 44.7 µM [inhibitor, partial curve, poor fit]",

# Looked up above.
# Value of CC1Oc2ccccc2N(CC(=O)N2CCCC2)C1=O (configuration not stated) under Potency: inconclusive: 89.1 µM [inhibitor, single point]
# Value of COc1cccc(-c2cc(C(F)(F)F)nc(-n3cc(Cl)cn3)n2)c1 under Potency: inconclusive: 14.1 µM [inhibitor, partial curve, poor fit]
